Source: PubChem BioAssay AID493014 (National Center for Advancing Translational Sciences (NCATS), 2011)
Some of the results follow. Further columns of the screen follow, without active or inactive calls. The list favours compounds with an active or inconclusive main result. Potencies come from curve fits of mixed quality, noted in brackets.

Experiment: qHTS Assay to Find Inhibitors of Chronic Active B-Cell Receptor Signaling
Settings: ABC-DLBCL IkBa-CBG/CBR reporter, luminescence ratio (green luciferase fused to IkBa over red control in TMD8 lymphoma cells), 4 h
Summary of the method: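 Doxycycline induced both beetle luciferases in TMD8 lymphoma cells; IKK-driven degradation limits the IkappaBalpha-fused green signal, while red luminescence normalises for cell number and nonspecific effects. Compounds tested up to 46 uM, 4 hrs.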

[1] = measured here: CBR red luminescence, cell number
[2] = measured here: IkBa-CBG green luminescence

Row | Structure (SMILES) | AC50 [1] | AC50 [2]
1 | O=C1NC(=O)N(Cc2ccccc2)C(=O)/C1=C/c1cnc(-c2ccccc2)nc1 | 11.2 µM [falling, single point] | 
2 | O=C(CCN1CCOCC1)Nc1ccc(Br)cc1C(=O)c1ccccc1 | 28.2 µM [rising, single point] | 
3 | COc1ccc(OC)c(NC(=O)c2ccc(-c3csc(C)n3)cc2)c1 | 10 µM [falling, partial curve] | 
4 | CCOC(=O)c1ccc2[nH]c(-c3ccc(S(=O)(=O)F)cc3)cc(=O)c2c1 | 35.5 µM [falling, single point] | 
5 | O=C(Cn1c(=O)oc2ccccc21)NC(=O)NCc1ccco1 | 16.4 µM [rising, single point] | 
6 | CCOP(=O)(OCC)C1(C(=O)O)CCCC1 | 0.794 µM [falling, full curve, poor fit] | 
7 | CCN(CC)CCN=Cc1c(O)n(Cc2ccccc2)c(=O)[nH]c1=O | 35.5 µM [rising, partial curve, poor fit] | 
8 | CN(C(=O)Oc1ccc(C(C)(C)C)cc1)c1ccccc1 | 14.1 µM [rising, partial curve, poor fit] | 
9 | O=C(c1cc(-c2ccccc2)on1)N1CCC2(CC1)OCCO2 | 3.16 µM [rising, full curve, poor fit] | 
10 | CCn1c(Sc2ccc([N+](=O)[O-])cn2)nnc1-c1ccco1 | 12.6 µM [falling, partial curve, poor fit] | 
11 | O=C(CNC1CCCCC1)N1CCC2(CC1)OCCO2 | 29.1 µM [falling, single point] | 
12 | N[C@@H](Cc1c[nH]c2ccccc12)c1nnc(SCc2c(F)cccc2Cl)o1 | 2 µM [rising, partial curve, poor fit] | 
13 | Cc1ccc(C(=O)Nc2ccc(C(=O)N/N=C/c3ccc(C)o3)cc2)cc1 | 22.4 µM [falling, single point] | 
14 | Cc1ccccc1-n1c(C)nc2sccc2c1=O | 11.2 µM [rising, partial curve] | 
15 | CC(C)CSC1=NSC2=NC(=O)/C(=C\c3ccccc3)C(=N)N12 | 35.5 µM [falling, single point] | 
16 | O=c1c2ccccc2[se]n1-c1ccccc1 | 22.4 µM [falling, single point] | 5.8 µM [falling, full curve]
17 | C[n+]1c(-c2ccccc2)c2cc(N)ccc2c2ccc(N)cc21 | 31.6 µM [rising, single point] | 
18 | C#CC1(O)C=CC2C3CCC4=CC(=O)CCC4C3CCC21CC (stereo not drawn) | 22.4 µM [rising, partial curve, poor fit] | 11.2 µM [falling, partial curve, poor fit]
19 | Cn1nnnc1SCc1ccc(C(=O)Nc2ccccc2F)cc1 | 22.4 µM [falling, partial curve, poor fit] | 
20 | CC(C)(C)C(O)C(Oc1ccc(Cl)cc1)n1cncn1 (stereo not drawn) | 0.1 µM [falling, full curve] | 
21 | NC(=O)[C@H]1CC2(CC(c3cccc(NC(=O)COc4ccc(Cl)cc4)c3)=NO2)CN1C(=O)c1ccc(Cl)cc1 (stereo partly drawn) | 11.2 µM [falling, partial curve] | 

Row | Structure (SMILES) | AC50 [1] | AC50 [2]
22 | COc1cc2c(cc1OC)C(C(=O)N1CCC3(CC1)OCCO3)C(c1ccccc1F)N(C)C2=O (stereo not drawn) | 32.6 µM [falling, partial curve, poor fit] | 
23 | COc1ccc(C(=O)/C=C2/C(=O)Nc3ccccc32)c(OC)c1 | 12.6 µM [falling, partial curve, poor fit] | 
24 | O=C(CN1CCN(C(=O)COc2cccc(F)c2)CC1)Nc1ccc(Cl)c(C(F)(F)F)c1 | 10.3 µM [falling, partial curve, poor fit] | 
25 | COc1ccc(/C=C\C(=O)c2c(O)ccc3c(C)cc(=O)oc23)cc1OC | 14.1 µM [rising, partial curve, poor fit] | 
26 | O=C1c2ccccc2-c2onc3c(N4CCN(CCO)CC4)cc(N4CCN(C(=O)c5ccco5)CC4)c1c23 | 11.2 µM [falling, partial curve, poor fit] | 
27 | CCOc1cc(CNCCc2c[nH]c3ccccc23)cc(Cl)c1OC | 10 µM [falling, single point] | 
28 | CCOC(=O)C1(c2ccccc2)CCN(CCC(=O)Nc2cccc(Br)c2)CC1 | 29.1 µM [falling, single point] | 
29 | COc1ccc2c(c1)c(/C=C/c1cc[n+](C)cc1)cn2C | 2.82 µM [falling, partial curve, poor fit] | 
30 | O=C(Oc1c(Cl)cc(Cl)c2ccccc12)N1CCCCC1 | 23.1 µM [rising, single point] | 
31 | Clc1ccc(OCC#CCN2CCOCC2)cc1 | 7.94 µM [rising, partial curve, poor fit] | 
32 | CCOP(=O)(OCC)/C(C#N)=C/c1ccc(Br)cc1 | 7.94 µM [falling, partial curve, poor fit] | 
33 | c1ccc2c(CN3CCCCC3)c[nH]c2c1 | 1.12 µM [rising, partial curve, poor fit] | 
34 | O=C(c1ccc2c(c1)N(Cc1ccc(F)cc1)CCS2)N1CCC2(CC1)OCCO2 | 15.8 µM [falling, partial curve, poor fit] | 
35 | O=C(O)c1ccccc1Nc1cccc(C(F)(F)F)c1 | 12.6 µM [falling, single point] | 
36 | Cc1cccc(C)c1NC1=NCCCCS1 | 29.1 µM [falling, single point] | 
37 | COc1ccc2[nH]cc(CCN(C)C)c2c1 | 35.5 µM [falling, single point] | 
38 | CCOC(=O)C1(c2ccccc2)CCN(CC(=O)Nc2cccc3ccccc23)CC1 | 9.2 µM [falling, partial curve, poor fit] | 
39 | Nc1cc(Cl)c2nonc2c1[N+](=O)[O-] | 3.26 µM [falling, partial curve, poor fit] | 
40 | NP(=O)(OCCCc1ccccc1)Oc1ccccc1Cl (stereo not drawn) | 3.55 µM [rising, partial curve, poor fit] | 
41 | Cc1cc(=O)oc2cc(OCC(=O)N3C[C@H]4C[C@@H](C3)c3cccc(=O)n3C4)ccc12 | 35.5 µM [rising, single point] | 

3 of the compounds above, with tabs:
Row	Structure (SMILES)	AC50 [1]	AC50 [2]
32	CCOP(=O)(OCC)/C(C#N)=C/c1ccc(Br)cc1	7.94 µM [falling, partial curve, poor fit]	
35	O=C(O)c1ccccc1Nc1cccc(C(F)(F)F)c1	12.6 µM [falling, single point]	
39	Nc1cc(Cl)c2nonc2c1[N+](=O)[O-]	3.26 µM [falling, partial curve, poor fit]	
